Assay [1] addresses NR2B-S2E (phosphorylation-mimicking derivative of NR2B), Flag-tagged (UniProt Q01097). Description: co-IP; HEK293T cells co-transfected with NR2B-Flag (WT, S2A or S2E), PKCα-HA and PICK1-Myc, lysed 36 h after transfection (50 mM Tris-HCl pH 7.4, 1% Triton X-100, 1 mM EDTA, 10 mM NaF, 1 mM Na3VO4); IP with mouse anti-DDDDK, anti-HA or anti-Myc antibody or control IgG, 6 h at 4 °C, protein A/G agarose overnight; blots with rabbit anti-tag antibodies.

Sequences of proteins named here, by UniProt entry; tags and fusion partners are left off. A change or cut given only in a name is not applied to a line headed by its entry.
UniProt Q01097: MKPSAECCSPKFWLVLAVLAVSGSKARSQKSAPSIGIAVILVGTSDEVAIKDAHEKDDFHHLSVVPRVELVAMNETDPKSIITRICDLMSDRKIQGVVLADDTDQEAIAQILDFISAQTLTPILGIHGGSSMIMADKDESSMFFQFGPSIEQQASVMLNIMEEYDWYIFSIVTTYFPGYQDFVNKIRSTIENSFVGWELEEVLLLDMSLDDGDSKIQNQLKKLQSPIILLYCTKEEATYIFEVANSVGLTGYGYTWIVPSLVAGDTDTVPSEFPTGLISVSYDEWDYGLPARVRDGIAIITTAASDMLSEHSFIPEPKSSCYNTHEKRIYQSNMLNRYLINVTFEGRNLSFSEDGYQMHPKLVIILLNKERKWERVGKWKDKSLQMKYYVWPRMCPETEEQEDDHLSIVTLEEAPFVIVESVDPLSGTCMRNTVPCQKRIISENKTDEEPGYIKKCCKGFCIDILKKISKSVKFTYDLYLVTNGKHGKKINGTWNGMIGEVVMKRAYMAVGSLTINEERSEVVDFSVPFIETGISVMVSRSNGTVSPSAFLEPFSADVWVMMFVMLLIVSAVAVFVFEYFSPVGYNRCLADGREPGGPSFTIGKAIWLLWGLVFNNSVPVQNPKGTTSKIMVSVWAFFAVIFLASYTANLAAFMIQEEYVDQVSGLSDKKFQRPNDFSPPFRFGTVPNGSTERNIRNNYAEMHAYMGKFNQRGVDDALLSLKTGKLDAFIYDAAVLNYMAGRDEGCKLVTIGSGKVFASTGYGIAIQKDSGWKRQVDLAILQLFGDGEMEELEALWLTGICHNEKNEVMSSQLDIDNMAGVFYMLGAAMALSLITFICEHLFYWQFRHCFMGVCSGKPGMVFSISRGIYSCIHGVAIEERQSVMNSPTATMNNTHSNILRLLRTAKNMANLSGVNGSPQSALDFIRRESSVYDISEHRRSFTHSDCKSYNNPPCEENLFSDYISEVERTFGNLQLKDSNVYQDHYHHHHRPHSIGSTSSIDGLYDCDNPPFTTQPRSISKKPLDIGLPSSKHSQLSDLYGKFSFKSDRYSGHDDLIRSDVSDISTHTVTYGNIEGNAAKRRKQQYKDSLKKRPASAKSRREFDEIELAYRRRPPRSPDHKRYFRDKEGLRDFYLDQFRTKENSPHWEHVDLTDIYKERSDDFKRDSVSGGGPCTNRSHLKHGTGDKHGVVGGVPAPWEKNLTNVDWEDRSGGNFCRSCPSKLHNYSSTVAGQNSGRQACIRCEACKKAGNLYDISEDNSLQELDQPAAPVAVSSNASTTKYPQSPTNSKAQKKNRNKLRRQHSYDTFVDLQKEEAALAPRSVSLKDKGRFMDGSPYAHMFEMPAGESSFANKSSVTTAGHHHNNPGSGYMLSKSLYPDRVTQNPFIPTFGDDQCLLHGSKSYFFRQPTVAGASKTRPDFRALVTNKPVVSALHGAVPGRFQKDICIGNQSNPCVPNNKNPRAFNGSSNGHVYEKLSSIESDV
UniProt Q62083: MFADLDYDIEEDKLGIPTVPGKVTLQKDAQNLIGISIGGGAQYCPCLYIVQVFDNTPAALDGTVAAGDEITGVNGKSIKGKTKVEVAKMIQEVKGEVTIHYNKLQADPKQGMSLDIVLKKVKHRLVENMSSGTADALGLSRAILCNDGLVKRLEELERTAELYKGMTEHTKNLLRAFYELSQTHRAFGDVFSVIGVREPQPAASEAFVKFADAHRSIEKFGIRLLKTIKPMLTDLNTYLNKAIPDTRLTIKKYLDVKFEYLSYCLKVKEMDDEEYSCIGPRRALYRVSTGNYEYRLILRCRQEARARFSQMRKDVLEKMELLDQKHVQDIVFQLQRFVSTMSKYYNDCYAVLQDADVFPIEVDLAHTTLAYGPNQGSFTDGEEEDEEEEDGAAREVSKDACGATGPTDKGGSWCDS

In assay [2] the target is NR2B-S2A (non-phosphorylatable derivative of NR2B), Flag-tagged (UniProt Q01097). Described as above.

These are yes or no findings as the source states them, for the method shown. Binding seen in cells or lysates may run through a third protein. Binding calls can cover weak binding; strength is not graded here.

In the case of “protein interacting with C kinase 1 (PICK1), Myc-tagged (from UniProt Q62083 1-416)”, the binding result in assay [1] and in assay [2] was “binds” in each case.

These data come from paper PMC6885518.
